# Experimental data: the supplement of paper PMC10849652
# By UniProt entry, the sequences of proteins in these tests, tags left out. Where a name states a change or a piece, a line headed by the entry shows the natural chain unless it says otherwise.
# UniProt P00491: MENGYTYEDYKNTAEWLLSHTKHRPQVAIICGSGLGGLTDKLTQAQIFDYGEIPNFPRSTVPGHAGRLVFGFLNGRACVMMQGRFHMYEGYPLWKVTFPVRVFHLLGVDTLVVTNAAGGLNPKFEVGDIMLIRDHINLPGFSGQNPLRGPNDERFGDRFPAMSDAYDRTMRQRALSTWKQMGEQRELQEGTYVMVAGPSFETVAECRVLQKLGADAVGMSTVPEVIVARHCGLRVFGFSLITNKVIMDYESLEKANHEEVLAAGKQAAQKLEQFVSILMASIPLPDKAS
# UniProt Q9H1D9: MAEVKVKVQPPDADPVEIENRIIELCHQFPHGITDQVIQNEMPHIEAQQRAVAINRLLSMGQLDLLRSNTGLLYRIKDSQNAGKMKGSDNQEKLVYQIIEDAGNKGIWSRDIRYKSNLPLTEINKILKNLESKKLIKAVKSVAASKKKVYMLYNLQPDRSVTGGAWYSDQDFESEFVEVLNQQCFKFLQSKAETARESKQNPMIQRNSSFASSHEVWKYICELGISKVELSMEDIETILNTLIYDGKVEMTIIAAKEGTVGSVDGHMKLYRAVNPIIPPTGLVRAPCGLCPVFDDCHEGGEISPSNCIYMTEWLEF
# UniProt P54098: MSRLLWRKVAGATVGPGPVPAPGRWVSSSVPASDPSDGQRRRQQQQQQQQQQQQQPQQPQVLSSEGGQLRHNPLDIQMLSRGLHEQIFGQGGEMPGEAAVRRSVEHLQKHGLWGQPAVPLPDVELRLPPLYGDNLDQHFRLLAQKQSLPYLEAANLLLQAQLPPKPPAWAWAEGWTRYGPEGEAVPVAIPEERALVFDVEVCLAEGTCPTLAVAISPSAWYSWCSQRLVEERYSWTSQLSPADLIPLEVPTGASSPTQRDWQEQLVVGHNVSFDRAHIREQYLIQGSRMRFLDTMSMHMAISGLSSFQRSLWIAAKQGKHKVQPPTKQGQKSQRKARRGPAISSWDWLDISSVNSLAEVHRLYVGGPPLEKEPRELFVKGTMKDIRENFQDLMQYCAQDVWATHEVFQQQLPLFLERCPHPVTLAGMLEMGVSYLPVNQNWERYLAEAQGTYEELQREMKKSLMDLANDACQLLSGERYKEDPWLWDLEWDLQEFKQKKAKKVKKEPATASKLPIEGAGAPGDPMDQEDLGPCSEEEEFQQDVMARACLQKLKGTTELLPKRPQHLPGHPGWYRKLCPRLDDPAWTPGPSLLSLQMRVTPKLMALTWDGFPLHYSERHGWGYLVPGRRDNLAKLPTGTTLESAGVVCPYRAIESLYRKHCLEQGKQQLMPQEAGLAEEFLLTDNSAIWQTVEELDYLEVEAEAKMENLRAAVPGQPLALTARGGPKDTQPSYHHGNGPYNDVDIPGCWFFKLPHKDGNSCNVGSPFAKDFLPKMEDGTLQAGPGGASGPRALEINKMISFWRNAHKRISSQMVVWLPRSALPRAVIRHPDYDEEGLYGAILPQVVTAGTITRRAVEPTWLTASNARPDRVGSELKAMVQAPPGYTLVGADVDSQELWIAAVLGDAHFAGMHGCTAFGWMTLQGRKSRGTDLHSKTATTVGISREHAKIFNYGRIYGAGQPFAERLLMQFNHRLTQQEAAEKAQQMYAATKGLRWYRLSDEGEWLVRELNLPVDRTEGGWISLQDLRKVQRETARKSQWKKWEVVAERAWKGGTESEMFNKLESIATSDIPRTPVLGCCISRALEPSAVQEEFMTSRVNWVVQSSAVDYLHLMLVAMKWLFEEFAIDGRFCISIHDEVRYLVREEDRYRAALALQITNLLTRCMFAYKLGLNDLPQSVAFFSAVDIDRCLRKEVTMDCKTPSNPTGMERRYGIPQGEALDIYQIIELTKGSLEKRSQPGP
# UniProt Q8IY26: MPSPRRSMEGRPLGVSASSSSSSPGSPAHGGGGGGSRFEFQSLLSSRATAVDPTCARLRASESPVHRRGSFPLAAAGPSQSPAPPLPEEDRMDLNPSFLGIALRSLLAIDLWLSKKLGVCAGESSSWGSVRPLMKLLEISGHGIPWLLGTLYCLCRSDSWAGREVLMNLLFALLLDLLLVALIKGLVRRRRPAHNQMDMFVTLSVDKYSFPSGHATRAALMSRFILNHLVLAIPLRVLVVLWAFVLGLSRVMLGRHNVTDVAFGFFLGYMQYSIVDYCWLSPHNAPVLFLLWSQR
# UniProt P16435: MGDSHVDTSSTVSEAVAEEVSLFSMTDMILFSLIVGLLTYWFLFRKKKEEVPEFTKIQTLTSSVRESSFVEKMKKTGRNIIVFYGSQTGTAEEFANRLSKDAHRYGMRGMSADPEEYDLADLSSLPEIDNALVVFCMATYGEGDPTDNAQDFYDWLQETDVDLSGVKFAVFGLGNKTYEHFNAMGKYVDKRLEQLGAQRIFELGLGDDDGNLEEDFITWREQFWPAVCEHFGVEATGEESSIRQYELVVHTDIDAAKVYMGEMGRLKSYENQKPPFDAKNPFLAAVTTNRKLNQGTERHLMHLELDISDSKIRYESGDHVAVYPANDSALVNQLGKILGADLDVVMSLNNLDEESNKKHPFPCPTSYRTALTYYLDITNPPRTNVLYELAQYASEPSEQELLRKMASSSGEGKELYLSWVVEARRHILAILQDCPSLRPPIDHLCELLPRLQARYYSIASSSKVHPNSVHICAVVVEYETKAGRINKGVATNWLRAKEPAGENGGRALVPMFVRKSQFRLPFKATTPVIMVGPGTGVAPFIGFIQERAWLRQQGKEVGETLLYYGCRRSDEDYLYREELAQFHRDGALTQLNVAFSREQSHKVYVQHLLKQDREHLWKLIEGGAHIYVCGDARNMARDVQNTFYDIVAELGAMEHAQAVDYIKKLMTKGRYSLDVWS
# UniProt Q9Y244: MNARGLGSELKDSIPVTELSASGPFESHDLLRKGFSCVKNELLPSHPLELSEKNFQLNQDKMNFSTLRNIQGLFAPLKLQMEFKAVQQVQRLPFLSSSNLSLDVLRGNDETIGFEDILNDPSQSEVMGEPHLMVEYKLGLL
# UniProt Q9H307: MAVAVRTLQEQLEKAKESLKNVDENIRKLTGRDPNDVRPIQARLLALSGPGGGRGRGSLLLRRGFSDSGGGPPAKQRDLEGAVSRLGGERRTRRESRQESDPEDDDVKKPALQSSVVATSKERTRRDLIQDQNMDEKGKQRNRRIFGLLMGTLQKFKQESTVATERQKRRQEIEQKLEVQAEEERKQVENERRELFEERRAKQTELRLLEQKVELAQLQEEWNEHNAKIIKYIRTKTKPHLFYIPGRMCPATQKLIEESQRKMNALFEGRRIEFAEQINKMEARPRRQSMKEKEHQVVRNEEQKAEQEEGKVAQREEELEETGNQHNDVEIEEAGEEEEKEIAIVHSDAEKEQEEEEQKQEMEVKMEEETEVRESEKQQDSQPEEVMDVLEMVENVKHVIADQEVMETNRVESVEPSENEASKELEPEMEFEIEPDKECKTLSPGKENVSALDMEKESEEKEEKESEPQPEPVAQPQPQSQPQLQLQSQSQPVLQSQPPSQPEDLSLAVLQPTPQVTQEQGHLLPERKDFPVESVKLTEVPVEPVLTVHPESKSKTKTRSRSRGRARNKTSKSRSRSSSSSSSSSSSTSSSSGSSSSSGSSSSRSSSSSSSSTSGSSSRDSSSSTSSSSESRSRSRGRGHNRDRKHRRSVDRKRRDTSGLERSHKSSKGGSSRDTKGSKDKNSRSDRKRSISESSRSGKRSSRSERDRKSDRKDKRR
# UniProt Q9NR33: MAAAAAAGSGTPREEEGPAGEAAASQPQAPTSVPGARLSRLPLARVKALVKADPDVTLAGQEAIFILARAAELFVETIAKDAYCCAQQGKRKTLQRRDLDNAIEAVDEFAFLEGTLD
# UniProt O43660: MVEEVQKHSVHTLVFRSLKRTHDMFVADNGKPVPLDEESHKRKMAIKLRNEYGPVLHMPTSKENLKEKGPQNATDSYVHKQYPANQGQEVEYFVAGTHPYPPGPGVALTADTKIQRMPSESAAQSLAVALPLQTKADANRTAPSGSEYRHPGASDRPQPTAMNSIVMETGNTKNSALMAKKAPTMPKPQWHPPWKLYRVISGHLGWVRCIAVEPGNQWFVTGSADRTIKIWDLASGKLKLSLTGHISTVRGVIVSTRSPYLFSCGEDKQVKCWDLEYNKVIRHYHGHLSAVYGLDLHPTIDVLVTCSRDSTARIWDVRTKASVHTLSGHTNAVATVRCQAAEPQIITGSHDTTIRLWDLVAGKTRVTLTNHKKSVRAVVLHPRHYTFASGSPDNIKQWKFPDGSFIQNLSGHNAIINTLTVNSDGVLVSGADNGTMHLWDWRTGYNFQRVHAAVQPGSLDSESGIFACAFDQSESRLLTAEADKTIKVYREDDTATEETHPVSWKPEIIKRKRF
# UniProt P0CAP2, whole entry, looked up: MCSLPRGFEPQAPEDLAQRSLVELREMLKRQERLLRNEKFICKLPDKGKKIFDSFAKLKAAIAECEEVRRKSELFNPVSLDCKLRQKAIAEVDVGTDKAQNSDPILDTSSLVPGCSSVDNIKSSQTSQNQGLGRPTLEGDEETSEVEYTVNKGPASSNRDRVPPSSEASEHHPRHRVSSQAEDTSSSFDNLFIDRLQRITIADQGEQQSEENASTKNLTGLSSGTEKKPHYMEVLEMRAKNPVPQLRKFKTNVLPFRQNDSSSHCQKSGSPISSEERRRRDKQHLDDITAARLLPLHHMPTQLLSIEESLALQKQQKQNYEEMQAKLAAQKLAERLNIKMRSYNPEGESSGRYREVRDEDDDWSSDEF
# UniProt O75145: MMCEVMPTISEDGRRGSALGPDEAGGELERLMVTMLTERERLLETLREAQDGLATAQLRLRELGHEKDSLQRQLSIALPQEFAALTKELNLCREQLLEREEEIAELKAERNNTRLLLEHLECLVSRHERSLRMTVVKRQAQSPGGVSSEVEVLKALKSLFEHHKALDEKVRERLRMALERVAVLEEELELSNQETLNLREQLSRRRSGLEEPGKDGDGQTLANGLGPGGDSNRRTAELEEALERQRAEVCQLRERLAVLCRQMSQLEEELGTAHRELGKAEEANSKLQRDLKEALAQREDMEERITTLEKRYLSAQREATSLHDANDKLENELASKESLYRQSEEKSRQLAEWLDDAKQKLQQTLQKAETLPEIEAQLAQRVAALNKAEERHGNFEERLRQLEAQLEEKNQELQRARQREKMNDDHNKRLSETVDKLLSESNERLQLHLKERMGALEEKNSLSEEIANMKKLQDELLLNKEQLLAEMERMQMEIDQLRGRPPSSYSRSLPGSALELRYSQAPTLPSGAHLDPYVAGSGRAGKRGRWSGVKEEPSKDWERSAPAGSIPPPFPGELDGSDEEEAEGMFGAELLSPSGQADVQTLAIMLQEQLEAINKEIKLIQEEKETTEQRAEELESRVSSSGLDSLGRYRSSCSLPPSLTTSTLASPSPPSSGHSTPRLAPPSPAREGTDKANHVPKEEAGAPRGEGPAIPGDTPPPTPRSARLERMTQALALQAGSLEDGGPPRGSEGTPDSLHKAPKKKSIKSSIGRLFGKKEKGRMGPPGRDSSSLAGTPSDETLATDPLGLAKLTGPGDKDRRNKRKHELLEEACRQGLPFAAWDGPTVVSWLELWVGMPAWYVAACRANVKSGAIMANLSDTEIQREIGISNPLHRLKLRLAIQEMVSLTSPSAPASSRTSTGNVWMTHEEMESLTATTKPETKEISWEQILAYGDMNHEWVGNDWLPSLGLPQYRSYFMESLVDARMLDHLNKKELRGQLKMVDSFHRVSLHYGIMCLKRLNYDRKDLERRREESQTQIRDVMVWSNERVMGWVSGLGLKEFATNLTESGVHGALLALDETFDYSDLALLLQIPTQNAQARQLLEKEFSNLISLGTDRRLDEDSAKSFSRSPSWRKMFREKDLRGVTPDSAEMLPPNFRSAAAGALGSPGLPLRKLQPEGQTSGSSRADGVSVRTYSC
# UniProt Q68D20: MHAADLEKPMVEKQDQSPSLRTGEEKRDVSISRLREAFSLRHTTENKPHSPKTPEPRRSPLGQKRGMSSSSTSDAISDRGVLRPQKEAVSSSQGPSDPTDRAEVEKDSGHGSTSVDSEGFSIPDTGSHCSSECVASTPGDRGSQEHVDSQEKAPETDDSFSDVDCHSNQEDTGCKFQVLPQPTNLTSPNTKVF
# UniProt Q9H237: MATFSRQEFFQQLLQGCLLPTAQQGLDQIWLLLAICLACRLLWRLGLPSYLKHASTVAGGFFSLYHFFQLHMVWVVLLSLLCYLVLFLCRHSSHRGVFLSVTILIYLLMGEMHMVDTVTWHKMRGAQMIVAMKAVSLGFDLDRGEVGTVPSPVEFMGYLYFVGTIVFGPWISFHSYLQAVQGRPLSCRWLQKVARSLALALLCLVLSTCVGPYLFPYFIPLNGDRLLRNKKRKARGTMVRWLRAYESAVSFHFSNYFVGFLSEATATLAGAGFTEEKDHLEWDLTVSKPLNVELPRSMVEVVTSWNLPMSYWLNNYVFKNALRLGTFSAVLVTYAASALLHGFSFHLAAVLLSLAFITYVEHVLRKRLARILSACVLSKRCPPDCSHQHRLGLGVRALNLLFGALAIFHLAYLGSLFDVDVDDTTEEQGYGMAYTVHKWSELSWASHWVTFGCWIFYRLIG
# The list shows a part of the results.
# How the values were obtained:
# Assay in all cases: log2 fold change, soluble protein after heating vs DMSO (PISA); higher = thermal stabilisation; K562 lysate, 10 uM; active = over 0.2 and 3.5 SD of the protein, either way, in both replicates (recomputed)
# nilotinib = compound: Cc1cn(-c2cc(NC(=O)c3ccc(C)c(Nc4nccc(-c5cccnc5)n4)c3)cc(C(F)(F)F)c2)cn1 [nilotinib]
# Outline: (§1)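 A 30 min treatment with 10 μM compound was applied to crude K562 extract at 1 mg/mL protein in PBS pH 7.4 with 1 mM MgCl2. Heating for 3 min spanned 48°C-58°C, after which aliquots were pooled, adjusted to 0.5% NP-40 at 4°C and spun at 21,000xg for 90 min. TMTpro 16plex LC-MS/MS of the supernatant, with channel sums equalised, gave values recorded as log-two fold change in thermal stability against solvent controls, from duplicates.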
# [1] = compound: Cc1nc(Nc2n[nH]c3c2CN(C(=O)N[C@H](CN(C)C)c2ccccc2)C3(C)C)c2sccc2n1
# Outline: as §1
# dasatinib = compound: Cc1nc(Nc2ncc(C(=O)Nc3c(C)cccc3Cl)s2)cc(N2CCN(CCO)CC2)n1 [dasatinib]
# Outline: as §1
# [2] = compound: Cc1ncc(-c2ccnc(Nc3ccc(S(C)(=O)=O)cc3)n2)n1C(C)C
# Outline: as §1
# [3] = compound: Cn1cc(-c2ccc3c(c2)CCN3C(=O)Cc2cccc(C(F)(F)F)c2)c2c(N)ncnc21
# Outline: as §1
# quisinostat = compound: Cn1cc(CNCC2CCN(c3ncc(C(=O)NO)cn3)CC2)c2ccccc21 [quisinostat]
# Outline: as §1
# tipifarnib = compound: Cn1cncc1[C@@](N)(c1ccc(Cl)cc1)c1ccc2c(c1)c(-c1cccc(Cl)c1)cc(=O)n2C [tipifarnib]
# Outline: as §1
# [4] = compound: NC(=O)Nc1cc(-c2cccc(F)c2)sc1C(=O)N[C@H]1CCCNC1
# Outline: as §1
# [5] = compound: NC(=O)c1cnc(N[C@@H]2CCCC[C@@H]2N)nc1Nc1cccc(-n2nccn2)c1
# Outline: as §1
# [6] = compound: NC1(c2ccc(-c3nc4ccn5c(=O)[nH]nc5c4cc3-c3ccccc3)cc2)CCC1
# Outline: as §1
# [7] = compound: NCC(=O)Nc1ccc(-n2nc(C(F)(F)F)cc2-c2ccc3c(ccc4ccccc43)c2)cc1
# Outline: as §1
# vorinostat = compound: O=C(CCCCCCC(=O)Nc1ccccc1)NO [vorinostat]
# Outline: as §1
# silmitasertib = compound: O=C(O)c1ccc2c(c1)nc(Nc1cccc(Cl)c1)c1ccncc12 [silmitasertib]
# Outline: as §1
# [8] = compound: O=C1NC(=O)C(c2cnc3ccccn23)=C1c1cn2c3c(cc(F)cc13)CN(C(=O)N1CCCCC1)CC2
# Outline: as §1
# entospletinib = compound: c1cn2cc(-c3ccc4cn[nH]c4c3)nc(Nc3ccc(N4CCOCC4)cc3)c2n1 [entospletinib]
# Outline: as §1
Target,log2 fold change (nilotinib),log2 fold change [1],log2 fold change (dasatinib),log2 fold change [2],log2 fold change [3],log2 fold change (quisinostat),log2 fold change (tipifarnib),log2 fold change [4],log2 fold change [5],log2 fold change [6],log2 fold change [7],log2 fold change (vorinostat),log2 fold change (silmitasertib),log2 fold change [8],log2 fold change (entospletinib)
PNP (UniProt P00491),inactive: 0.007,inactive: -0.002,inactive: 0.031,inactive: -0.013,inactive: 0.002,inactive: 0.001,inactive: 0.003,inactive: 0,inactive: -0.012,inactive: 0.023,inactive: -0.01,inactive: 0.13,inactive: -0.021,inactive: -0.031,inactive: -0.009
POLR3F (UniProt Q9H1D9),inactive: 0.009,inactive: -0.008,inactive: 0.006,inactive: -0.03,inactive: -0.001,inactive: 0.012,inactive: -0.007,inactive: 0.016,inactive: -0.002,inactive: -0.015,inactive: -0.022,inactive: 0.058,inactive: 0.012,inactive: -0.037,inactive: -0.025
PLEKHO2 (UniProt Q8TD55),inactive: 0.207,inactive: -0.237,inactive: -0.096,inactive: 0.118,inactive: -0.039,inactive: 0.062,inactive: -0.192,inactive: 0.068,inactive: -0.071,active: 0.873,inactive: 0.045,inactive: -0.103,inactive: 0.347,inactive: -0.018,inactive: 0.082
POLG (UniProt P54098),inactive: -0.058,inactive: 0,inactive: 0.105,inactive: 0.019,inactive: -0.013,inactive: -0.277,inactive: -0.081,inactive: 0.016,inactive: 0.116,inactive: 0.166,inactive: 0.081,inactive: 0.004,inactive: -0.018,inactive: 0.131,inactive: 0.019
POLR3A (UniProt O14802),inactive: 0.003,inactive: 0.001,inactive: 0.002,inactive: -0.009,inactive: 0.013,inactive: 0.004,inactive: 0.004,inactive: 0.016,inactive: 0.01,inactive: -0.003,inactive: 0.003,inactive: -0.169,inactive: 0.019,inactive: -0.012,inactive: -0.033
PLPP6 (UniProt Q8IY26),inactive: 0.128,inactive: -0.164,inactive: -0.022,inactive: -0.143,inactive: -0.104,inactive: 0.049,inactive: 0.062,inactive: 0.009,,inactive: -0.1,inactive: -0.064,inactive: -0.102,inactive: -0.022,inactive: -0.194,
POR (UniProt P16435),inactive: -0.03,inactive: -0.011,inactive: 0.033,inactive: -0.017,inactive: 0.003,inactive: 0.026,inactive: -0.019,inactive: -0.002,inactive: -0.007,inactive: -0.032,inactive: -0.013,inactive: 0.107,inactive: -0.013,inactive: 0.008,inactive: -0.027
PLXNB2 (UniProt O15031),inactive: -0.052,inactive: 0.019,inactive: -0.036,inactive: 0.013,inactive: 0.003,inactive: 0.016,inactive: -0.017,inactive: 0.042,inactive: -0.024,inactive: -0.006,inactive: 0.003,inactive: 0.033,inactive: 0.001,inactive: 0.019,inactive: -0.03
POMP (UniProt Q9Y244),inactive: 0.021,inactive: 0.057,inactive: 0.048,active: 0.301,inactive: 0,inactive: -0.054,inactive: -0.046,inactive: -0.007,inactive: 0.039,inactive: -0.002,inactive: -0.016,inactive: -0.028,inactive: 0.05,inactive: 0.014,inactive: -0.12
POLR2D (UniProt O15514),inactive: -0.083,inactive: 0.052,inactive: -0.014,inactive: -0.028,inactive: 0.039,inactive: -0.013,inactive: 0.13,inactive: -0.026,inactive: 0.02,inactive: 0.003,inactive: 0.011,inactive: 0.137,inactive: -0.044,inactive: 0.009,inactive: -0.098
POLR2J (UniProt P52435),inactive: 0.052,inactive: -0.008,inactive: 0.01,inactive: 0.167,inactive: -0.027,inactive: 0.008,inactive: -0.03,inactive: 0.005,inactive: -0.117,inactive: -0.004,,inactive: -0.051,inactive: -0.007,inactive: 0.128,inactive: -0.064
PNN (UniProt Q9H307),inactive: 0.022,inactive: -0.007,inactive: 0.025,inactive: -0.018,inactive: 0.01,inactive: 0.005,inactive: -0.004,inactive: -0.058,inactive: 0.004,inactive: 0.03,inactive: 0.027,inactive: 0.035,inactive: -0.088,inactive: -0.055,inactive: 0.009
PNO1 (UniProt Q9NRX1),inactive: -0.01,inactive: -0.005,inactive: 0,inactive: 0.008,inactive: 0.009,inactive: 0.047,inactive: -0.015,inactive: 0.004,inactive: -0.012,inactive: 0.013,inactive: 0,inactive: -0.143,inactive: 0.05,inactive: 0.052,inactive: 0.011
POLE4 (UniProt Q9NR33),inactive: 0.078,inactive: -0.152,inactive: -0.023,inactive: 0.102,inactive: 0.031,inactive: 0.135,inactive: 0.052,inactive: -0.023,inactive: -0.051,inactive: -0.05,inactive: 0.077,inactive: 0.083,inactive: -0.066,inactive: -0.027,inactive: -0.104
POTEKP (UniProt Q9BYX7),inactive: 1.59,inactive: -0.275,inactive: -0.472,inactive: 0.928,inactive: 0.815,inactive: -0.008,inactive: -0.049,inactive: 0.243,inactive: 0.947,inactive: 0.837,,inactive: -0.001,inactive: 0.702,inactive: 1.05,
PLRG1 (UniProt O43660),inactive: -0.005,inactive: 0.02,inactive: 0.046,inactive: 0.035,inactive: -0.003,inactive: -0.024,inactive: 0.011,inactive: -0.016,inactive: -0.009,inactive: 0.003,inactive: 0.05,inactive: 0.038,inactive: -0.026,inactive: -0.041,inactive: 0.04
POLR2M (UniProt P0CAP2),inactive: -0.033,inactive: -0.014,inactive: -0.032,inactive: 0.012,inactive: -0.056,inactive: -0.015,inactive: 0.007,inactive: 0.012,inactive: 0.002,inactive: 0.014,inactive: 0.034,inactive: 0,inactive: -0.029,inactive: -0.027,inactive: 0.076
POP4 (UniProt O95707),inactive: 0.08,inactive: -0.063,inactive: 0.06,inactive: 0,inactive: 0.014,inactive: -0.016,inactive: 0.018,inactive: 0.036,inactive: -0.004,inactive: -0.011,inactive: 0.041,inactive: 0.084,inactive: 0.045,inactive: 0.023,inactive: -0.023
PPFIA3 (UniProt O75145),inactive: -0.048,inactive: -0.16,inactive: -0.035,inactive: 0.019,inactive: -0.02,,inactive: 0.057,,inactive: -0.091,inactive: -0.034,inactive: -0.119,inactive: 0.017,inactive: 0.025,,
PMS2CL (UniProt Q68D20),,,,,,inactive: -0.018,,inactive: 0.055,inactive: -0.018,,,,,inactive: 0.11,
PORCN (UniProt Q9H237),inactive: 0.156,inactive: -0.602,,inactive: 0.35,,,inactive: -0.029,,,,,,,,

# Reprinted from the entries so far (2 entries):
Target,log2 fold change (nilotinib),log2 fold change [1],log2 fold change (dasatinib),log2 fold change [2],log2 fold change [3],log2 fold change (quisinostat),log2 fold change (tipifarnib),log2 fold change [4],log2 fold change [5],log2 fold change [6],log2 fold change [7],log2 fold change (vorinostat),log2 fold change (silmitasertib),log2 fold change [8],log2 fold change (entospletinib)
POLR2J (UniProt P52435),inactive: 0.052,inactive: -0.008,inactive: 0.01,inactive: 0.167,inactive: -0.027,inactive: 0.008,inactive: -0.03,inactive: 0.005,inactive: -0.117,inactive: -0.004,,inactive: -0.051,inactive: -0.007,inactive: 0.128,inactive: -0.064
PNN (UniProt Q9H307),inactive: 0.022,inactive: -0.007,inactive: 0.025,inactive: -0.018,inactive: 0.01,inactive: 0.005,inactive: -0.004,inactive: -0.058,inactive: 0.004,inactive: 0.03,inactive: 0.027,inactive: 0.035,inactive: -0.088,inactive: -0.055,inactive: 0.009
